These are yes or no findings as the source states them, for the method shown. Some entries that bind do so weakly or less than the wild type.
How the values were obtained:
[1] = target: T1, cynomolgus CD25 (cynomolgus, UniProt H6WS54 22-213); experiment: SPR, Biacore 8K
T1 construct: Analyte in the SPR assay; also called CD25 (sIL-2 Receptor α)
T1 sequence: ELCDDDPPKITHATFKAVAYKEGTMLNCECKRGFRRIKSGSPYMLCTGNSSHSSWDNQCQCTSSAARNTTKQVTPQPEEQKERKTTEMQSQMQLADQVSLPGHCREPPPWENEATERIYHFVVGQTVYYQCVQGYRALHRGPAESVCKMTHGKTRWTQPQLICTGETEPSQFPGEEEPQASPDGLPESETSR

[2] = target: T1, cynomolgus CD25; experiment: SPR (legend of FIG. 1)
[3] = target: T2, human CD25 on KIT-225 cells (human, UniProt P01589 22-272); experiment: FACS on CD25-positive KIT-225 cells
T2 construct: whole, on cells; also called hCD25; IL-2Rα
T2 sequence (looked up): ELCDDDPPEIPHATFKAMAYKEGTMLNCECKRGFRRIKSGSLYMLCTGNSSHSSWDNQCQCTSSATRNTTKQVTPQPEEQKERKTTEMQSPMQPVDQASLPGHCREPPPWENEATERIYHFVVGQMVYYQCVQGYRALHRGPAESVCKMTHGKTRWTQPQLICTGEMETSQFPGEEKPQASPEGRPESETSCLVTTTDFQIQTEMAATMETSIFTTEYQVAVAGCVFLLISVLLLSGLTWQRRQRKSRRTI

[4] = target: T2, human CD25 on KIT-225 cells; experiment: FACS on CD25-expressing KIT-225 cells (legend of FIG. 2)
[5] = target: T1, cynomolgus CD25; experiment: SPR (BIACORE 8K), antibody captured on a Protein A chip, cynomolgus CD25 injected as analyte at 12.5-800 nM
[6] = target: T2, human CD25 on KIT-225 cells; experiment: flow cytometry (FACS) on CD25-expressing KIT-225 cells, secondary antibody, MFI against antibody concentration
Method: KIT-225 cells were washed once with FACS buffer, counted, and resuspended at a concentration of 1×10⁶/mL in FACS buffer. To 5 mL (5×10⁶ total) of cells, 25 μL of viable dye (Thermo Fisher, L34974, equivalent to 1:200 dilution) was added and mixed well. After incubation at 4° C. for 30 minutes, cells were washed twice with FACS buffer (200×g, 5 minutes each). Cells were resuspended in 5 mL FACS buffer and 100 μL was added per well, followed by addition of 100 μL diluted antibody. The solution was mixed by pipetting up and down and then incubated at 4° C. for 60 minutes, after which cells were washed twice with FACS buffer (200×g, 5 minutes each). Cells were resuspended in 100 μL FACS buffer. Fifty μL of secondary antibody was diluted in 5 mL FACS buffer (equivalent to 1:100 dilution), and 100 μL was added to each well and mixed by pipetting up and down. Following incubation at 4° C. for 30 minutes, cells were washed twice with FACS buffer (200×g, 5 minutes each), and resuspended in approximately 250 μL FACS buffer. FACS analysis was performed with Attune Flow cytometer using tube reading module.

binding [1]: binds
binding [2]: binds
binding [3]: binds
binding [4]: binds
binding [5]: binds
binding [6]: binds
B1: antibody 14564 (antibody, human IgG4 S228P, kappa, V domains shown)
VH: EVQLVESGGGLVQPGGSLRLSCAASGFTFSSWGMSWVRQAPGKGLELVSTINGYGDTTYYPDSVKGRFTISRDNSKNTLYLQMNSLRAEDTAVYYCARDRDYSNSYYYAHDYWGQGTLVTVSS
VL: EIVLTQSPATLSLSPGERATLSCRASSYVSFMHWLQQKPGQAPRPWIYATANLASGVPARFSGSGSGTDYTLTISSLEPEDFAVYYCQQWSSNPPAFGGGTKVEIKR

— patent US20250387484A1 (US Dept. of Health and Human Services, published 2025)
